# Numbering of substitutions follows the chain as printed. These are yes or no findings as the source states them, for the method shown. A result given as binding can be weak or reduced; the word gives no strength. For some assays here: Where a sequence is shown, tags or fusion partners need not be part of it.
# Columns and labels:
# Assay in all cases: two-hybrid; bacterial adenylate cyclase two-hybrid (BACTH) in E. coli BTH101; PII or variants fused to T18, candidates fused to T25; X-Gal and MacConkey reporter plates, 3–4 days at 25°C
# [1] = biological target: T1, PII(R9L)-T18 fusion (Synechocystis sp. PCC 6803) (UniProt Q55247)
# T1 sequence: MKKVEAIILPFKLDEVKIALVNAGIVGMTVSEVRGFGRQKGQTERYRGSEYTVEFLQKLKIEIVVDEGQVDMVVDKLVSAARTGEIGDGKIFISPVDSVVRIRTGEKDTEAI
# [2] = biological target: T2, PII(S49D)-T18 fusion (Synechocystis sp. PCC 6803) (UniProt Q55247)
# T2 sequence: T1 sequence with L9R, S49D
# [3] = biological target: PII(I86N)-T18 fusion (Synechocystis sp. PCC 6803) (UniProt Q55247)
binding [1],binding [2],binding [3],Substance
binds,binds,,C-terminal T25 fusion of UrtE (Synechocystis sp. PCC 6803)
no binding,no binding,,UrtD with N-terminal T25 fusion (Synechocystis sp. PCC 6803)
no binding,no binding,,UrtD with C-terminal T25 fusion (Synechocystis sp. PCC 6803)
binds,binds,,C-terminal tagged PipX (T25 fusion) (Synechocystis sp. PCC 6803)
no binding,binds weakly,binds weakly,NrtD with N-terminal T25 fusion (from UniProt P73449)
